# The other results are listed elsewhere or left out. Many values rest on one well or one pass, so single values are uncertain.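 The apoptosis fraction was the count of cleaved-PARP antibody-stained nuclei relative to all DNA-stained nuclei, imaged in 1,536-well plates. Screening doses were set so most cells survived, and baseline and induced cleaved-PARP levels vary greatly across cell lines.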
# System: 501Mel
# Assay: cleaved PARP positive nuclei fraction relative to DMSO control; melanoma cells; higher = more apoptosis
# Settings: library dose: low library concentration; 72 h
row,SMILES,cleaved PARP positive nuclei fraction [%]
1,"Nc1ccn([C@@H]2O[C@H](CO)[C@@H](O)C2(F)F)c(=O)n1 [gemcitabine] + O=S(=O)(c1ccccc1)N(CC(F)(F)F)c1ccc(C(O)(C(F)(F)F)C(F)(F)F)cc1 [T0901317] (first compound 0.0004 µM, partner dose 1.4 µM)",81.6
2,"Nc1ncn([C@H]2C[C@H](O)[C@@H](CO)O2)c(=O)n1 [decitabine] + O=C(Nc1ccccc1)c1cc([N+](=O)[O-])ccc1Cl [GW9662] (first compound 0.1 µM, partner dose 2 µM)",177
3,"Nc1nc(F)nc2c1ncn2[C@@H]1O[C@H](CO)[C@@H](O)[C@@H]1O [fludarabine] + Cn1cc(/C=C2\C(=O)Nc3cccnc32)c2ccccc21 [GW441756] (first compound 0.2 µM, partner dose 0.4 µM)",746
4,"Nc1ccn([C@@H]2O[C@H](CO)[C@@H](O)C2(F)F)c(=O)n1 [gemcitabine] + CCN(CC)CCCCNc1ncc2cc(-c3cc(OC)cc(OC)c3)c(NC(=O)NC(C)(C)C)nc2n1 [PD173074] (first compound 0.0004 µM, partner dose 0.1 µM)",30.7
5,"CCCS(=O)(=O)Nc1ccc(F)c(C(=O)c2c[nH]c3ncc(Cl)cc23)c1F + COc1ccc(COc2ccc(Cc3cnc(N)nc3N)cc2OC)cc1 [GW2580] (first compound 0.08 µM, partner dose 1 µM)",52.4
6,"Nc1ccn([C@@H]2O[C@H](CO)[C@@H](O)C2(F)F)c(=O)n1 [gemcitabine] + CCc1ccc(CCOc2ccc(CC3SC(=O)NC3=O)cc2)nc1 [pioglitazone] (first compound 0.0004 µM, partner dose 2 µM)",98.5
7,"Nc1ncn([C@H]2C[C@H](O)[C@@H](CO)O2)c(=O)n1 [decitabine] + Oc1cc(-c2nc(-c3ccccc3)[nH]c2-c2ccncc2)ccc1Cl [L779450] (first compound 0.1 µM, partner dose 0.2 µM)",81.9
8,"CNC(=O)c1cc(Oc2ccc(NC(=O)Nc3ccc(Cl)c(C(F)(F)F)c3)cc2)ccn1 [sorafenib] + Cc1cc([N+](=O)[O-])ccc1NS(=O)(=O)c1cc(Cl)ccc1Cl [FH535] (first compound 0.4 µM, partner dose 1 µM)",63.1
9,"O=C(O)c1ccc2c(c1)nc(Nc1cccc(Cl)c1)c1ccncc12 + N#Cc1c(O)c2c(-c3ccc(-c4ccccc4O)cc3)csc2[nH]c1=O [A769662] (first compound 0.4 µM, partner dose 2 µM)",109
10,"Nc1ccn([C@@H]2O[C@H](CO)[C@@H](O)C2(F)F)c(=O)n1 [gemcitabine] + COc1ccc(COc2ccc(Cc3cnc(N)nc3N)cc2OC)cc1 [GW2580] (first compound 0.0004 µM, partner dose 1 µM)",57.5
11,"Nc1ncn([C@H]2C[C@H](O)[C@@H](CO)O2)c(=O)n1 [decitabine] + O=C1NC(=O)/C(=C/c2ccc(-c3ccc(F)cc3O)o2)S1 [AS252424] (first compound 0.1 µM, partner dose 1 µM)",94.7
12,"CCCS(=O)(=O)Nc1ccc(F)c(C(=O)c2c[nH]c3ncc(Cl)cc23)c1F + Cn1cc(/C=C2\C(=O)Nc3cccnc32)c2ccccc21 [GW441756] (first compound 0.08 µM, partner dose 0.4 µM)",54.6
13,"Cc1cc(Nc2cc(N3CCN(C)CC3)nc(/C=C/c3ccccc3)n2)n[nH]1 + O=c1cc(-c2cccc3c2Sc2ccccc2S3)oc(N2CCOCC2)c1 [KU55933] (first compound 0.04 µM, partner dose 1 µM)",70.6
14,"Cn1c(=O)n(-c2ccc(C(C)(C)C#N)cc2)c2c3cc(-c4cnc5ccccc5c4)ccc3ncc21 + COc1cc2ncnc(Nc3ccc(Oc4ccccc4)cc3)c2cc1OC [SrcI1] (first compound 0.004 µM, partner dose 2 µM)",156
15,"Cc1cc(Nc2cc(N3CCN(C)CC3)nc(/C=C/c3ccccc3)n2)n[nH]1 + O=S(=O)(c1ccccc1)N(CC(F)(F)F)c1ccc(C(O)(C(F)(F)F)C(F)(F)F)cc1 [T0901317] (first compound 0.04 µM, partner dose 1.4 µM)",153
16,"CCCS(=O)(=O)Nc1ccc(F)c(C(=O)c2c[nH]c3ncc(Cl)cc23)c1F + O=C1NC(=O)/C(=C/c2ccc(-c3ccc(F)cc3O)o2)S1 [AS252424] (first compound 0.08 µM, partner dose 1 µM)",43.3

# At a glance, some entries already given:
row,SMILES,cleaved PARP positive nuclei fraction [%]
10,"Nc1ccn([C@@H]2O[C@H](CO)[C@@H](O)C2(F)F)c(=O)n1 [gemcitabine] + COc1ccc(COc2ccc(Cc3cnc(N)nc3N)cc2OC)cc1 [GW2580] (first compound 0.0004 µM, partner dose 1 µM)",57.5
11,"Nc1ncn([C@H]2C[C@H](O)[C@@H](CO)O2)c(=O)n1 [decitabine] + O=C1NC(=O)/C(=C/c2ccc(-c3ccc(F)cc3O)o2)S1 [AS252424] (first compound 0.1 µM, partner dose 1 µM)",94.7

# (next part)

row,SMILES,cleaved PARP positive nuclei fraction [%]
1,"Cn1c(=O)n(-c2ccc(C(C)(C)C#N)cc2)c2c3cc(-c4cnc5ccccc5c4)ccc3ncc21 + CC(C)CCN1c2nc(Nc3cc(F)c(O)c(F)c3)ncc2N(C)C(=O)C1C [BID1870] (first compound 0.004 µM, partner dose 0.2 µM)",56.2
2,"CN1CCN(c2ccc3nc(-c4c(N)c5c(F)cccc5[nH]c4=O)[nH]c3c2)CC1 [Dovitinib] + Oc1cc(-c2nc(-c3ccccc3)[nH]c2-c2ccncc2)ccc1Cl [L779450] (first compound 0.1 µM, partner dose 0.2 µM)",175
3,"Nc1nc(F)nc2c1ncn2[C@@H]1O[C@H](CO)[C@@H](O)[C@@H]1O [fludarabine] + COc1cc(N2CCC(N3CCN(C)CC3)CC2)ccc1Nc1ncc(Cl)c(Nc2ccccc2S(=O)(=O)C(C)C)n1 [NVP-TAE684] (first compound 0.2 µM, partner dose 0.08 µM)",796
4,"Nc1ncn([C@H]2C[C@H](O)[C@@H](CO)O2)c(=O)n1 [decitabine] + COc1ccc(-c2ccc3c(N4CCOCC4)nc(N4C[C@@H](C)O[C@@H](C)C4)nc3n2)cc1CO [KU0063794] (first compound 0.1 µM, partner dose 0.02 µM)",83.5
5,"CCCS(=O)(=O)Nc1ccc(F)c(C(=O)c2c[nH]c3ncc(Cl)cc23)c1F + Oc1cc(-c2nc(-c3ccccc3)[nH]c2-c2ccncc2)ccc1Cl [L779450] (first compound 0.08 µM, partner dose 0.2 µM)",74.9
6,"C=C(c1ccc(C(=O)O)cc1)c1cc2c(cc1C)C(C)(C)CCC2(C)C [Bexarotene] + CCCCCCCCCCCC1=C(O)C(=O)C=C(O)C1=O [Embelin] (first compound 2 µM, partner dose 1.2 µM)",126
7,"O=C(O)c1ccc2c(c1)nc(Nc1cccc(Cl)c1)c1ccncc12 + Oc1nc(-c2ccc(C(F)(F)F)cc2)nc2c1CSCC2 [XAV939] (first compound 0.4 µM, partner dose 2 µM)",136
8,"C=C(c1ccc(C(=O)O)cc1)c1cc2c(cc1C)C(C)(C)CCC2(C)C [Bexarotene] + COC(=O)c1sccc1S(=O)(=O)Nc1ccc(Nc2ccccc2)cc1OC [GSK0660] (first compound 2 µM, partner dose 1 µM)",80.8
9,"Nc1nc(F)nc2c1ncn2[C@@H]1O[C@H](CO)[C@@H](O)[C@@H]1O [fludarabine] + COc1ccc2c(c1)CCC1C2CCC2(C)C(NCCCCCCN3C(=O)C=CC3=O)CCC12 [U73122] (first compound 0.2 µM, partner dose 0.4 µM)",598
10,"O=C(O)[C@@H]1[O][Sb](=[O])([O][Sb]2(=[O])[O][C@H]([C@H](O)CO)[C@H](O)[C@H](C(=O)O)[O]2)[O][C@H]([C@H](O)CO)[C@@H]1O (some centres not stated) [stibogluconate] + O=C(O)C(=O)Nc1sc2c(c1C(=O)O)CCNC2 [TCS401] (first compound 2 µM, partner dose 1.66667 µM)",57.7
11,"C=C(c1ccc(C(=O)O)cc1)c1cc2c(cc1C)C(C)(C)CCC2(C)C [Bexarotene] + Cc1cc([N+](=O)[O-])ccc1NS(=O)(=O)c1cc(Cl)ccc1Cl [FH535] (first compound 2 µM, partner dose 1 µM)",70.1
12,"C=C(c1ccc(C(=O)O)cc1)c1cc2c(cc1C)C(C)(C)CCC2(C)C [Bexarotene] + COc1ccc(COc2ccc(Cc3cnc(N)nc3N)cc2OC)cc1 [GW2580] (first compound 2 µM, partner dose 1 µM)",65.4
13,"Nc1nc(F)nc2c1ncn2[C@@H]1O[C@H](CO)[C@@H](O)[C@@H]1O [fludarabine] + O=C(Nc1ccccc1)c1cc([N+](=O)[O-])ccc1Cl [GW9662] (first compound 0.2 µM, partner dose 2 µM)",2470
14,"CC(C)C[C@H](NC(=O)[C@H](Cc1ccccc1)NC(=O)c1cnccn1)B(O)O [Bortezomib] + COC(=O)c1sccc1S(=O)(=O)Nc1ccc(Nc2ccccc2)cc1OC [GSK0660] (first compound 0.001 µM, partner dose 1 µM)",333
15,"CN1CCN(c2ccc3nc(-c4c(N)c5c(F)cccc5[nH]c4=O)[nH]c3c2)CC1 [Dovitinib] + COc1ccc(COc2ccc(Cc3cnc(N)nc3N)cc2OC)cc1 [GW2580] (first compound 0.1 µM, partner dose 1 µM)",98.6
16,"Cn1c(=O)n(-c2ccc(C(C)(C)C#N)cc2)c2c3cc(-c4cnc5ccccc5c4)ccc3ncc21 + Cc1cc([N+](=O)[O-])ccc1NS(=O)(=O)c1cc(Cl)ccc1Cl [FH535] (first compound 0.004 µM, partner dose 1 µM)",72.8

# Source: the supplement of paper PMC4604168 (melanoma cell lines)
